Results: paper PMC3790753

The chains behind the UniProt entries cited, without tags or fusion partners.
UniProt P31947: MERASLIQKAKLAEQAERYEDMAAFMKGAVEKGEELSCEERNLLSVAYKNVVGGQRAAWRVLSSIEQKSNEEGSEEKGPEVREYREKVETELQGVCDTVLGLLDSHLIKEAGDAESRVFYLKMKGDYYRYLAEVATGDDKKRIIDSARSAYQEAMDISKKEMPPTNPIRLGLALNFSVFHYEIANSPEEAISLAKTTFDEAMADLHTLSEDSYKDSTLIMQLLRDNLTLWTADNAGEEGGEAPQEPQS

Molecular target: T1, Pkp-3-myc (full-length myc-tagged plakophilin-3) (human) (UniProt Q9Y446)
T1 sequence: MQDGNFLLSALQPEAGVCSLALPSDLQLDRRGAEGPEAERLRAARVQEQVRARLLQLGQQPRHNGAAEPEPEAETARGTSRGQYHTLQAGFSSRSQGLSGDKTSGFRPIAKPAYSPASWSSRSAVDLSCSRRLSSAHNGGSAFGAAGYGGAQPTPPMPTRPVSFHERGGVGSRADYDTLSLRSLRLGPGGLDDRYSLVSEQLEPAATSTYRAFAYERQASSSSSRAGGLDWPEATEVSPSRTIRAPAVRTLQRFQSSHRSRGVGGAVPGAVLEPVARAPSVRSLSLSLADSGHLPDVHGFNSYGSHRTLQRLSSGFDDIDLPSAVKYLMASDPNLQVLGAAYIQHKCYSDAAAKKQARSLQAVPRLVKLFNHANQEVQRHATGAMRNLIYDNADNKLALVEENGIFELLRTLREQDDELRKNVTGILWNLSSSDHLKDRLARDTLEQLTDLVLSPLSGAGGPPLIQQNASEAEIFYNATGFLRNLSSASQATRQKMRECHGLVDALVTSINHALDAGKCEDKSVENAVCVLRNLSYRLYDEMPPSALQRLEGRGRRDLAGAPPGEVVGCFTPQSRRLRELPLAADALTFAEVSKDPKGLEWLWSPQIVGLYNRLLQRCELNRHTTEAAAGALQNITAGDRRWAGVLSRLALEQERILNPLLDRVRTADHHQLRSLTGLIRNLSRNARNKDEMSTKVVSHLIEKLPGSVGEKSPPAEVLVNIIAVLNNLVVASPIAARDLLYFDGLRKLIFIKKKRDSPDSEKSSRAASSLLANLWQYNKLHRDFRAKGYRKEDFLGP
Assay: affinity purification with mass spectrometry; myc-tagged plakophilin-3 immunopurified from A431 cell lysates; immune complexes trypsin digested, peptides identified by mass spectroscopy

binding: binds
Substance: stratifin (14-3-3 σ) (endogenous) (from UniProt P31947 1-248)

No constants are given. Whether binding was seen depends on the method and setting. Binding seen in cells or lysates may run through a third protein. These calls come from enrichment with a bait or labelling near it, and not all partners need be listed. Where a sequence is shown, tags or fusion partners need not be part of it.
